Test [1] deals with UBE2S (human (endogenous in Huh-7 and MHCC-97H)) (UniProt Q16763). The test is described as follows: affinity purification with mass spectrometry; co-immunoprecipitation of UBE2S-interacting complexes from nuclear extracts of Huh-7 cells, mass spectrometry.
For test [2] the target is unchanged. The description is as above. This is another data set of the same source.

Chains of the proteins cited; added tags and fusions are not shown.
UniProt Q16763: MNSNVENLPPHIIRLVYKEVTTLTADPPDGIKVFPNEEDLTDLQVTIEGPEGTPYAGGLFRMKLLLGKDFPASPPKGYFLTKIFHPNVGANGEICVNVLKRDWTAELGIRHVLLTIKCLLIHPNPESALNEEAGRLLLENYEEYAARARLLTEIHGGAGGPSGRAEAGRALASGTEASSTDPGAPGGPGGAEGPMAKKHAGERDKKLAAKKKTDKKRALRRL
UniProt Q13263: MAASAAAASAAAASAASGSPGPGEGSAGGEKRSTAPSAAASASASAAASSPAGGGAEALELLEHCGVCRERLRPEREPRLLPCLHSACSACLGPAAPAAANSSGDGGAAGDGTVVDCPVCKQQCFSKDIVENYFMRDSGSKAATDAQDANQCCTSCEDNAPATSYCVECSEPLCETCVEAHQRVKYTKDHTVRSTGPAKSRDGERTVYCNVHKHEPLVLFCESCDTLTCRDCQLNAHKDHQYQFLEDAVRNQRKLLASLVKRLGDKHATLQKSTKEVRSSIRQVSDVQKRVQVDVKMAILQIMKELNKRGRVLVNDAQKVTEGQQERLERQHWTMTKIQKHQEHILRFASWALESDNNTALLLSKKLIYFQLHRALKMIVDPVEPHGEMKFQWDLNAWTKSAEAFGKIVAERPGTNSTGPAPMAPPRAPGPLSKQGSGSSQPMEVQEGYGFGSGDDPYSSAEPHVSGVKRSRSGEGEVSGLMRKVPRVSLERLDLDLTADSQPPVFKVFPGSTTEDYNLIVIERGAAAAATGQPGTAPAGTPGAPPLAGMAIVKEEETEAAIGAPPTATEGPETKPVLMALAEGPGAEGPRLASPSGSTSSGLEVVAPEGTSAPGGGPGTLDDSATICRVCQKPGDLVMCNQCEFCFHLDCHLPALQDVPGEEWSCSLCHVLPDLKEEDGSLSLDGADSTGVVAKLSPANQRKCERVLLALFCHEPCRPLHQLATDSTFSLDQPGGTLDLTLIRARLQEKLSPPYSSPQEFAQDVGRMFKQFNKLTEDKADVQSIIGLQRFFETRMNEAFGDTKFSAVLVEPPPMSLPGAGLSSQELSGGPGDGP
UniProt P07355: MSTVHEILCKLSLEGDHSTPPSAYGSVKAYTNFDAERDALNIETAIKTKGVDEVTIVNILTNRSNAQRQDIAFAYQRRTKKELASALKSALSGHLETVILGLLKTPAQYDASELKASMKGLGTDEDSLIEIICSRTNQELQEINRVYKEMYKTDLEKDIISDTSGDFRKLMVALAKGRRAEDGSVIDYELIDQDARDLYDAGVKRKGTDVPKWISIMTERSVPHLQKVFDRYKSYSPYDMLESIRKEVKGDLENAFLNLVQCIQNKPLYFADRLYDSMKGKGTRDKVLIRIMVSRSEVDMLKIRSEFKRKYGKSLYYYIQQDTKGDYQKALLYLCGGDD

Like-named read-outs stand apart in the source and are kept apart here. No constants are given. Whether binding was seen depends on the method and setting. Binding seen in cells or lysates may run through a third protein. A yes stands for co-enrichment or nearness to the bait. Other partners may have been found.

Regarding “Tripartite motif-containing 28 (TRIM28) (from UniProt Q13263 1-835)”, the binding result in test [1] is on record as “binds”.

As for ANAX2 (from UniProt P07355 1-339), in test [1], the binding entry is “binds”.

B1: ILF3 (protein, UniProt Q12906 1-894)
chain: MRPMRIFVNDDRHVMAKHSSVYPTQEELEAVQNMVSHTERALKAVSDWIDEQEKGSSEQAESDNMDVPPEDDSKEGAGEQKTEHMTRTLRGVMRVGLVAKGLLLKGDLDLELVLLCKEKPTTALLDKVADNLAIQLAAVTEDKYEILQSVDDAAIVIKNTKEPPLSLTIHLTSPVVREEMEKVLAGETLSVNDPPDVLDRQKCLAALASLRHAKWFQARANGLKSCVIVIRVLRDLCTRVPTWGPLRGWPLELLCEKSIGTANRPMGAGEALRRVLECLASGIVMPDGSGIYDPCEKEATDAIGHLDRQQREDITQSAQHALRLAAFGQLHKVLGMDPLPSKMPKKPKNENPVDYTVQIPPSTTYAITPMKRPMEEDGEEKSPSKKKKKIQKKEEKAEPPQAMNALMRLNQLKPGLQYKLVSQTGPVHAPIFTMSVEVDGNSFEASGPSKKTAKLHVAVKVLQDMGLPTGAEGRDSSKGEDSAEETEAKPAVVAPAPVVEAVSTPSAAFPSDATAEQGPILTKHGKNPVMELNEKRRGLKYELISETGGSHDKRFVMEVEVDGQKFQGAGSNKKVAKAYAALAALEKLFPDTPLALDANKKKRAPVPVRGGPKFAAKPHNPGFGMGGPMHNEVPPPPNLRGRGRGGSIRGRGRGRGFGGANHGGYMNAGAGYGSYGYGGNSATAGYSQFYSNGGHSGNASGGGGGGGGGSSGYGSYYQGDNYNSPVPPKHAGKKQPHGGQQKPSYGSGYQSHQGQQQSYNQSPYSNYGPPQGKQKGYNHGQGSYSYSNSYNSPGGGGGSDYNYESKFNYSGSGGRSGGNSYGSGGASYNPGSHGGYGGGSGGGSSYQGKQGGYSQSNYNSPGSGQNYSGPPSSYQSSQGGYGRNADHSMNYQYR
In the case of B1, the binding result in test [2] is on record as “binds”.

Source of the values: article PMC7884418.
